This test concerns the target HPTP-β (VE-PTP) (human) (UniProt P23467). Briefly: ELISA on HPTP-β, absorbance against antibody concentration 0.05-1 ug/mL (control curve). In general terms: ELISA stands for enzyme-linked immunosorbent assay.

Protein sequences, listed by entry. Tags and fused reporters are not part of them. Residues count along the entry.
UniProt P23467, residues 23-1534: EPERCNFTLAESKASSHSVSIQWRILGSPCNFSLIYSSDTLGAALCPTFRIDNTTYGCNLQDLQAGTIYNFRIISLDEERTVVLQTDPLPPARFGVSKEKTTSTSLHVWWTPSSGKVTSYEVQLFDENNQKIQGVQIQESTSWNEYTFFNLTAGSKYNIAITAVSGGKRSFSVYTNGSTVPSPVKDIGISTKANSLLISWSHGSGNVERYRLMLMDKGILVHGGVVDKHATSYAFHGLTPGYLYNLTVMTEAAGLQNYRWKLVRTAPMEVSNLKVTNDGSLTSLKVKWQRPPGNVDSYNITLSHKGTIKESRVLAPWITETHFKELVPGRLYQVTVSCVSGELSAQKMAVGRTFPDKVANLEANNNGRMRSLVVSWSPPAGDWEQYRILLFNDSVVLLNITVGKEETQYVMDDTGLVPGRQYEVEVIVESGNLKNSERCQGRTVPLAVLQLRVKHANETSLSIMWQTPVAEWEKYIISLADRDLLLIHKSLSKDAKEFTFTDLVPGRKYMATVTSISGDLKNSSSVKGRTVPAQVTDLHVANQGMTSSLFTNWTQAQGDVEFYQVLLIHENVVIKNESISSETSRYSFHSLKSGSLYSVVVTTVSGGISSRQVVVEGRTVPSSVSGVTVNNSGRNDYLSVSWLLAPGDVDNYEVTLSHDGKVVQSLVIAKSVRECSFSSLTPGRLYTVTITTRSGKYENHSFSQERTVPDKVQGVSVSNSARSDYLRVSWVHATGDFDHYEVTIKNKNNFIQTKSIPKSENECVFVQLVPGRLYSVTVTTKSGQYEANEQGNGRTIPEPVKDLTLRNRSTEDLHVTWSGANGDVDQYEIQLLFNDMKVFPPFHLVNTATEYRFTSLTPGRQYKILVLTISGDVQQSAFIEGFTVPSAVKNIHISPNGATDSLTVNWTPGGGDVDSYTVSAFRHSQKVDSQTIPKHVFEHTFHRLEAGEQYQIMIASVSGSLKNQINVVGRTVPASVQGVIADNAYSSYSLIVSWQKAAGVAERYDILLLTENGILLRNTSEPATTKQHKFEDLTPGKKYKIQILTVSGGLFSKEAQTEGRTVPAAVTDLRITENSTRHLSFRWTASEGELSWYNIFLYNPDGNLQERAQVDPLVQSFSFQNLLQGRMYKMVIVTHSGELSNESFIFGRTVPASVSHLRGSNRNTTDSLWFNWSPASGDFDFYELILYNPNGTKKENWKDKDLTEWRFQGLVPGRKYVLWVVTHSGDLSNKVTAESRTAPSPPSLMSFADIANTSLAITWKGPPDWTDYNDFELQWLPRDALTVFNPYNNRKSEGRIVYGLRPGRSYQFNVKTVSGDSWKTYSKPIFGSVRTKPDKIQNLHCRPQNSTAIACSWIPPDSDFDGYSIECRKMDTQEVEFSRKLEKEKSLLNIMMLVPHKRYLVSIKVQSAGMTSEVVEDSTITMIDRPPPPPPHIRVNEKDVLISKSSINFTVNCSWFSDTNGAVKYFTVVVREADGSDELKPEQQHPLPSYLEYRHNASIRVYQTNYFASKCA

Results are given in words; binding and its absence hold for the method and conditions named. Some entries that bind do so weakly or less than the wild type.

B1: HC2:LC1 (antibody, human IgG4 S228P, kappa, V domains shown)
VH: EVQLVESGGGLVQPGGSLRLSCAASGFTFNANAMNWVRQAPGKGLEWVGRIRTKSNNYATYYAGSVKDRFTISRDDSKNSLYLQMNSLKTEDTAVYYCVRDYYGSSAWITYWGQGTLVTVSS
VL: DVVMTQSPSFLSASVGDRVTITCKASQHVGTAVAWYQQRPGKAPKLLIYWASTRHTGVPSRFSGSGSGTEFTLTISSLQPEDFATYFCQQYSSYPFTFGGGTKLEIKR
For B1, the binding result is on record as “binds”.
